Article PMC10127071
These are yes or no findings as the source states them, for the method shown. In cells and extracts the contact can be indirect. Binding can be weak; no strength is given. For part of these data: Sequences can lack the tags named with a protein.

Tests used:
[1] = biological target: T1, C1qbp-HA (UniProt O35658); experiment: co-IP; reciprocal co-immunoprecipitation from transiently transfected cells lysed in RIPA buffer, protein A/G beads, Western blotting; rabbit normal IgG as control
T1 sequence: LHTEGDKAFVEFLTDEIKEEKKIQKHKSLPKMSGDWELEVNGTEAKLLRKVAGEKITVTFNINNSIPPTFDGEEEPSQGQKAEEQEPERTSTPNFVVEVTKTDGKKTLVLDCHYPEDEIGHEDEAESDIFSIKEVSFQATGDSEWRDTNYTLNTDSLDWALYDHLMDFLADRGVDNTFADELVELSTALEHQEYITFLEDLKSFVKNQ

[2] = biological target: Rsrc1-161aa-eGFP (mouse); experiment: as above
[3] = biological target: Rsrc1-161aa-HA (mouse); experiment: proximity ligation; in situ PLA (Duolink) in fixed GC-1 spg cells transiently transfected with Rsrc1-161aa-HA; mouse anti-HA and rabbit anti-C1qbp; no primary antibody as negative control

Molecule: Rsrc1-161aa-eGFP (mouse)
- binding [1]: binds

B1: C1qbp-HA (protein, UniProt O35658 71-278)
chain: LHTEGDKAFVEFLTDEIKEEKKIQKHKSLPKMSGDWELEVNGTEAKLLRKVAGEKITVTFNINNSIPPTFDGEEEPSQGQKAEEQEPERTSTPNFVVEVTKTDGKKTLVLDCHYPEDEIGHEDEAESDIFSIKEVSFQATGDSEWRDTNYTLNTDSLDWALYDHLMDFLADRGVDNTFADELVELSTALEHQEYITFLEDLKSFVKNQ
- binding [2]: binds

B2: Complement component 1, q subcomponent binding protein (protein, UniProt O35658 71-278)
chain: LHTEGDKAFVEFLTDEIKEEKKIQKHKSLPKMSGDWELEVNGTEAKLLRKVAGEKITVTFNINNSIPPTFDGEEEPSQGQKAEEQEPERTSTPNFVVEVTKTDGKKTLVLDCHYPEDEIGHEDEAESDIFSIKEVSFQATGDSEWRDTNYTLNTDSLDWALYDHLMDFLADRGVDNTFADELVELSTALEHQEYITFLEDLKSFVKNQ
- binding [3]: binds
